Experimental data reported in article PMC8962469.
No constants are given. Whether binding was seen depends on the method and setting. In cells and extracts the contact can be indirect. Some results given as binding are weak or reduced against the parent protein; the word gives no strength.

Chains of the proteins cited; added tags and fusions are not shown.
UniProt P51858: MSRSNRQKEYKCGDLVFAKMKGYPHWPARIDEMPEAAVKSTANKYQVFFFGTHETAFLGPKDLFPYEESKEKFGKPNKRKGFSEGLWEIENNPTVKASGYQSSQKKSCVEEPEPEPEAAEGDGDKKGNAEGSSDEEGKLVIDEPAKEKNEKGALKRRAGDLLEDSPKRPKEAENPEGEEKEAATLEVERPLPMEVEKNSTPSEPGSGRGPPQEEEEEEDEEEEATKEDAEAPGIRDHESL
UniProt P05412: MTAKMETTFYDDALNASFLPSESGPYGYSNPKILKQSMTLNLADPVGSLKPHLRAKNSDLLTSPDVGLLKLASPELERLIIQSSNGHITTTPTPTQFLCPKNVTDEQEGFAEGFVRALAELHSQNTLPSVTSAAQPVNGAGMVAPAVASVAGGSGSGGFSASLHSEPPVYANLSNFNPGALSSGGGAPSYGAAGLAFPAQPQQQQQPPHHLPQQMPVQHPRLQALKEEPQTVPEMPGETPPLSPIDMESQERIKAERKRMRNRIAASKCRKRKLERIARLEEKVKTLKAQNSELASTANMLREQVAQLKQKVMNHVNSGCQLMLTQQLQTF

Target: hepatoma-derived growth factor (HDGF) (human (endogenous in SKOV3 and OVCAR3)) (UniProt P51858)
Experiment: co-IP; Pierce Co-IP kit; 10 ug specific antibody or IgG added to 5 mg protein overnight at 4 C; SKOV3 and OVCAR3 cells; detected by Western blot

- binding: binds
Substance: jun proto-oncogene (C-JUN) (from UniProt P05412 1-331)
